Laboratory results taken from PubChem BioAssay AID2685 (National Center for Advancing Translational Sciences (NCATS), 2010).
This is one part of the list. Shown are side measurements of this screen, not its main read-out; they come without a call. The list favours compounds with an active or inconclusive main result. Words in brackets tell the shape of the fitted curve; partial curves, single points and poor fits give uncertain potencies.

Experiment: qHTS Assay for Lipid Storage Modulators in Drosophila S3 Cells;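 as to cell number change: cells counted by Cell Tracker Red CMTPX staining in the red channel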
Details: BODIPY lipid droplet fluorescence, 18-24 h; for cell number change: measured here: cell count max response, cells fed with added oleic acid
How it was run: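 Laser-scanning cytometry quantifies lipid droplet accumulation (500–530 nm total intensity; droplet/cell object ratio) in oleic acid-fed (400 uM added) Drosophila S3 cells treated with a concentration series. 20 uM Triacsin C defined 100% inhibition.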

[1] = measured here: cell number channel AC50, cells fed with added oleic acid
[2] = measured here: lipid fluorescence (Fed channel) AC50, cells fed with added oleic acid

| Structure (SMILES) | AC50 [1] | cell number change [%] | AC50 [2] |
| --- | --- | --- | --- |
| CCN(Cc1ccccc1)S(=O)(=O)c1ccc(S(=O)(=O)N(Cc2cccc(OC)c2)CC2CCCO2)cc1 (stereo not given) | 1.3 µM [rising, partial curve, poor fit] |  |  |
| O=C(O)C1CCCCC1C(=O)Nc1ccc(F)c(F)c1 (stereo not given) | 20.6 µM [rising, single point] | 107 | 0.58 µM [falling, partial curve, poor fit] |
| CN1CCN(C(=O)c2cccc(NS(=O)(=O)c3ccc(Br)cc3)c2)CC1 |  | 17.1 | 0.103 µM [rising, full curve, poor fit] |
| Cc1ccnc(NC(=O)c2cccc(S(=O)(=O)N3CCCC3)c2)c1 |  | -6.45 |  |
| CCCCN(CCCC)Cc1ccc(N)cc1 |  | 2.7 |  |
| CN(C)C=NC(=O)c1cc(C(=O)c2ccc(Cl)cc2)c[nH]1 |  | 8.92 | 29.1 µM [rising, single point] |
| CC1(C)CC(=O)C(C=NCCO)=C(O)C1 | 4.61 µM [falling, full curve] | -38 | 7.31 µM [falling, partial curve] |
| COc1cc(C2/C(=C(\O)c3ccc4c(c3)CC(C)O4)C(=O)C(=O)N2Cc2ccco2)ccc1O (stereo not given) |  | -4.68 | 0.103 µM [falling, full curve, poor fit] |
| Cc1ccc(-c2nc(Nc3cccc(O)c3)c3ccccc3n2)cc1 | 29.1 µM [falling, single point] | -44.8 | 29.1 µM [falling, single point] |
| O=C1NC(c2ccc(-c3ccccc3[N+](=O)[O-])o2)C(C(=O)c2ccc(Cl)cc2)C(O)(C(F)(F)F)N1 (stereo not given) | 13 µM [falling, partial curve] | -57 | 14.6 µM [falling, partial curve] |
| CCc1ccccc1NC(=O)C1CC(c2ccc(F)cc2)=NO1 (stereo not given) |  | 3.47 | 0.058 µM [rising, full curve] |
| Cc1ccc2cccc(S(=O)(=O)Nc3ccc4c(c3)OCO4)c2n1 |  | -14 | 1.3 µM [rising, full curve] |
| CCC(=O)N1CCN(c2ccc(NC(=O)c3ccc(N4CCCC4)c([N+](=O)[O-])c3)cc2)CC1 |  | -22.6 | 1.84 µM [falling, partial curve, poor fit] |
| COc1cc(C2C(C#N)=C(C)NC3=C2C(=O)CC(C)(C)C3)cc(OC)c1O (stereo not given) |  | 10.6 | 2.06 µM [rising, full curve, poor fit] |
| CCC(=O)Nn1c(C)nnc1C | 3.66 µM [falling, full curve] | -31.2 | 3.26 µM [falling, full curve] |
| Cc1cc(Cl)ccc1OCC(=O)NCCCn1ccnc1 |  | 21.8 | 6.51 µM [rising, single point] |
| COc1ccc(N2C(=O)[C@@H]3[C@H](C2=O)[C@H]2c4ccccc4C=CN2[C@@H]3C(=O)Nc2ccccc2)cc1 |  | 0.855 |  |
| COc1cc(C(=O)NCc2ccc3c(c2)OCO3)ccc1OCc1c(C)noc1C |  | -1.6 | 6.51 µM [falling, single point] |
| O=C(Cc1cccs1)Nc1ccc(F)c(S(=O)(=O)N2CCOCC2)c1 |  | -17.4 |  |
| CSc1ncccc1C(=O)N1CCCC(Nc2ccc(C)c(C)c2)C1 (stereo not given) | 7.31 µM [rising, partial curve, poor fit] | 41.4 | 6.51 µM [falling, single point] |

| Structure (SMILES) | AC50 [1] | cell number change [%] | AC50 [2] |
| --- | --- | --- | --- |
| COc1ccccc1CCc1nnc(CCC(=O)NCC2CCCO2)o1 (stereo not given) |  |  | 29.1 µM [rising, single point] |
| CCC1C/C(=C\c2cc(OC)c(OC)cc2OC)C(=O)/C(=C/c2cc(OC)c(OC)cc2OC)C1 (stereo not given) |  | 0.709 |  |
| COc1ccc(NC(=S)NC(NC(=O)c2ccccc2Cl)C(Cl)(Cl)Cl)c([N+](=O)[O-])c1 (stereo not given) | 1.3 µM [rising, full curve] | 31.1 | 6.51 µM [rising, single point] |
| COc1ccc(OC)c(CCNC(=O)C(=O)Nc2ccc3nc4n(c(=O)c3c2)CCCCC4)c1 |  | -12.9 | 13 µM [falling, partial curve, poor fit] |
| COc1ccc(CN(C(=O)CSc2nnc(-c3c[nH]c4ccccc34)o2)c2ccc(F)cc2)cc1OC | 20.6 µM [falling, single point] | -40.6 | 18.4 µM [falling, single point] |
| O=C(COC(=O)c1cccs1)NC1CCCC1 |  |  | 29.1 µM [rising, single point] |
| CCOc1ccc(NC(=O)C2CCCN(S(=O)(=O)c3c(C)noc3C)C2)cc1 (stereo not given) |  | 21.4 | 18.4 µM [rising, partial curve, poor fit] |
| Cc1cc(C(=O)N/N=C/c2ccc(Br)o2)n[nH]1 |  | 10.1 | 5.8 µM [rising, single point] |
| CC(=O)NCCC(=O)Nc1ccc(C(N)=O)cc1 |  | -46 | 25.9 µM [falling, single point] |
| CCOc1ccc(NC(=O)CC2C(=O)N(c3ccc(OCC)cc3)C(=S)N2C2CC2)cc1 (stereo not given) | 2.31 µM [falling, single point] | 5.06 | 1.16 µM [falling, partial curve] |
| COCCOC(=O)c1c(C)nc(SCC(=O)Nc2ccc(C)cc2)c(C#N)c1-c1ccco1 | 0.58 µM [rising, partial curve, poor fit] | 20.4 | 0.58 µM [rising, partial curve] |
| COc1ccc(C2C(C(=O)N3CCN(c4ccccn4)CC3)CCC(=O)N2c2cc(OC)c(OC)c(OC)c2)cc1 (stereo not given) |  | 59.8 |  |
| COc1ccc(S(N)(=O)=O)cc1C(=O)OCC(=O)NC(C)(C#N)C1CC1 (stereo not given) |  | -4.42 | 0.82 µM [rising, single point] |
| Cc1ccc2c(c1)c1c(n2CC(O)Cn2nc(C)c(Br)c2C)CCCC1 (stereo not given) |  | 6.28 |  |
| Cc1ccc(COC(=O)CCN=C2NS(=O)(=O)c3ccccc32)cc1 | 16.4 µM [falling, partial curve, poor fit] | -35 |  |
| O=C(/C=C/c1cccc(F)c1)NCc1ccc2c(c1)OCO2 |  | 14.6 | 0.82 µM [rising, full curve, poor fit] |
| CN=C1S/C(=C\c2cn(CC(=O)OC)c3ccccc23)C(=O)N1C | 2.59 µM [rising, single point] | 19.8 |  |
| O=C(CSc1nccn1Cc1ccccc1)Nc1nccs1 |  | 6.17 | 20.6 µM [rising, single point] |
| COc1ccc(C(CNC(=O)CCNS(=O)(=O)c2ccc(C)cc2)N2CCOCC2)cc1 (stereo not given) | 20.6 µM [falling, single point] | -98.3 | 29.1 µM [rising, single point] |
| COC(=O)c1c(NC(=O)CCS(=O)(=O)c2ccccc2)sc2c1CCN(C)C2 |  | 15.9 | 25.9 µM [rising, single point] |

Exported bar-delimited: 3 of the compounds above.
Structure (SMILES) | AC50 [1] | cell number change [%] | AC50 [2]
COc1ccc(OC)c(CCNC(=O)C(=O)Nc2ccc3nc4n(c(=O)c3c2)CCCCC4)c1 |  | -12.9 | 13 µM [falling, partial curve, poor fit]
COc1ccc(CN(C(=O)CSc2nnc(-c3c[nH]c4ccccc34)o2)c2ccc(F)cc2)cc1OC | 20.6 µM [falling, single point] | -40.6 | 18.4 µM [falling, single point]
O=C(COC(=O)c1cccs1)NC1CCCC1 |  |  | 29.1 µM [rising, single point]

Further structures follow.

| Structure (SMILES) | AC50 [1] | cell number change [%] | AC50 [2] |
| --- | --- | --- | --- |
| CC(=O)Nc1ccc(S(=O)(=O)NC(C)CCc2ccccc2)cc1 (stereo not given) |  | -21.2 | 23.1 µM [rising, single point] |
| CSc1nc2ccccc2n1CC(=O)N1CCCCC1 | 29.1 µM [rising, single point] | 34.1 |  |
| O=C(NCCCO)c1nc2ccccc2s1 |  | -3.17 |  |
| O=C(O)C1Cc2ccccc2CN1C(=O)COc1ccc(Cl)cc1 (stereo not given) | 3.66 µM [falling, partial curve, poor fit] | -7.26 |  |
| CN(C)CCCN1C(=O)c2oc3ccccc3c(=O)c2C1c1cccs1 (stereo not given) |  | -7.93 | 6.51 µM [falling, single point] |
| CCc1ccc(N(CC(=O)NC(C)(C)CC)C(=O)CCC(=O)Nc2nccs2)cc1 |  | -8.14 | 29.1 µM [falling, single point] |
| O=C(Nc1ccccc1C(=O)O)c1cccc(C(=O)Nc2ccccc2C(=O)O)c1 |  | 2.64 |  |
| CCn1cc(C(=O)NC2CCCCCC2)c2cc(OC)c(OC)cc2c1=O |  | 109 |  |
| CC(C)c1ccc2[nH]c3c(c2c1)CCCC3=O | 13 µM [rising, single point] | 65.8 | 0.651 µM [falling, single point] |
| COCCn1c(=NC(=O)c2cc(-c3cccs3)nc3ccccc23)sc2cc(S(N)(=O)=O)ccc21 | 0.164 µM [falling, full curve, poor fit] | 34.7 |  |
| COc1ccc(OC)c(C(=O)NC2CCSc3ccccc32)c1 (stereo not given) |  | -0.855 | 0.82 µM [rising, partial curve, poor fit] |
| CCOc1ccccc1NC(=O)CSc1nnc(CNC(=O)c2ccccc2F)o1 |  | 3.68 |  |
| CCN1CCN(CCCNC(=O)c2ccc3c(c2)NC(=O)c2ccccc2S3)CC1 |  | -9.83 | 25.9 µM [falling, partial curve] |
| CC(C)Cc1nnc(NC(=O)c2cc(S(=O)(=O)N(C)C)ccc2N2CCCC2)s1 | 29.1 µM [rising, partial curve, poor fit] | 34.6 |  |
| O=C(c1cnn2c(C(F)F)cc(-c3ccccc3)nc12)N1CCN2CCCC2C1 (stereo not given) |  | 3.98 |  |
| COc1ccc(Br)cc1CN1C(=O)NC2(CCCCCC2)C1=O |  | 5.71 |  |
| O=C(O)CCN1C(=O)/C(=C\c2ccc(-c3nc4ccccc4s3)o2)SC1=S |  | 22.9 | 0.651 µM [falling, full curve] |
| CCOc1ccc(OCCC(=O)NNC(=O)c2cc(C)oc2C)cc1 |  | -12 | 0.00461 µM [rising, full curve, poor fit] |
| Cc1cc(Cl)cc(Cl)c1OCCCCN(C)C |  | 13.7 | 2.06 µM [rising, full curve] |
| O=S(=O)(NCc1cccs1)c1cccc2cccnc12 |  |  | 0.092 µM [falling, full curve, poor fit] |
